# Assay results as given in the supplement of paper PMC8728848.
# The other results are listed elsewhere or left out.
# B1: Epa8 (Candida glabrata) (protein)
# chain: MGSSHHHHHHSSGLVPRGSHMASSRALSDYPLGCSPLLGTKLTPGLSMELYEYPLDNHGIGPHCWDPAYLNPEYPRTGFESHKLIGTAQNVMSLNFEHRTQDCHVEFSNLPASFNFPDQITLTNFTMLLYGYFKPKESGRYRFHMEADDLLLMNLGAGNAFDCCAHEATRNNLGDYIAYDIWAGTRKDVEVFLEKEVFYPLRLFFNNRDGRAALDFSYYLNGATEPGTDIPELLFSLPDGESCPAYI
# Key:
# Assay in all cases: glycan array binding signal (z-score within array); higher = stronger binding
# Conditions in all cases: glycan notation: IUPAC condensed, linker removed
# Gal(a1-6)Glc = target: Gal(a1-6)Glc
# Procedure, shortened: (§1)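 Glycan array data were curated from 3228 arrays in the Consortium for Functional Glycomics database and kept only where the protein sequence was available. Glycan names were converted to IUPAC-condensed notation, and columns mapping to the same glycan were averaged. The binding signal is a within-array Z-score, averaged across arrays of the same protein sequence at different concentrations or buffers and across linkers. Negative Z-scores can be read as non-binding.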
# Gal(b1-2)Gal = target: Gal(b1-2)Gal
# Procedure, shortened: as §1
# Gal(b1-3)Gal = target: Gal(b1-3)Gal
# Procedure, shortened: as §1
# Gal(b1-3)Gal(b1-4)GlcNAc = target: Gal(b1-3)Gal(b1-4)GlcNAc
# Procedure, shortened: as §1
# Gal(b1-3)GalNAc = target: Gal(b1-3)GalNAc
# Procedure, shortened: as §1
# [1] = target: Gal(b1-3)GalNAc(a1-3)[Fuc(a1-2)]Gal(b1-4)Glc
# Procedure, shortened: as §1
# [2] = target: Gal(b1-3)GalNAc(a1-3)[Fuc(a1-2)]Gal(b1-4)GlcNAc
# Procedure, shortened: as §1
# Gal(b1-3)GalNAc(b1-3)Gal = target: Gal(b1-3)GalNAc(b1-3)Gal
# Procedure, shortened: as §1
# [3] = target: Gal(b1-3)GalNAc(b1-3)Gal(a1-4)Gal(b1-4)Glc
# Procedure, shortened: as §1
# [4] = target: Gal(b1-3)GalNAc(b1-4)Gal(b1-4)Glc
# Procedure, shortened: as §1
# [5] = target: Gal(b1-3)GalNAc(b1-4)[Neu5Ac(a2-3)]Gal(b1-4)Glc
# Procedure, shortened: as §1
# Gal(b1-3)GlcNAc = target: Gal(b1-3)GlcNAc
# Procedure, shortened: as §1
# [6] = target: Gal(b1-3)GlcNAc(a1-3)Gal(b1-4)GlcNAc
# Procedure, shortened: as §1
# [7] = target: Gal(b1-3)GlcNAc(a1-6)Gal(b1-4)GlcNAc
# Procedure, shortened: as §1
# Gal(b1-3)GlcNAc(b1-2)Man = target: Gal(b1-3)GlcNAc(b1-2)Man
# Procedure, shortened: as §1
# [8] = target: Gal(b1-3)GlcNAc(b1-2)Man(a1-3)[Gal(b1-3)GlcNAc(b1-2)Man(a1-6)]Man(b1-4)GlcNAc(b1-4)GlcNAc
# Procedure, shortened: as §1
# [9] = target: Gal(b1-3)GlcNAc(b1-2)Man(a1-3)[Gal(b1-3)GlcNAc(b1-2)Man(a1-6)]Man(b1-4)GlcNAc(b1-4)[Fuc(a1-6)]GlcNAc
# Procedure, shortened: as §1
# [10] = target: Gal(b1-3)GlcNAc(b1-2)Man(a1-3)[GlcNAc(b1-4)][Gal(b1-3)GlcNAc(b1-2)Man(a1-6)]Man(b1-4)GlcNAc(b1-4)GlcNAc
# Procedure, shortened: as §1
# [11] = target: Gal(b1-3)GlcNAc(b1-2)[Gal(b1-3)GlcNAc(b1-6)]Man(a1-6)[Gal(b1-3)GlcNAc(b1-2)Man(a1-3)]Man(b1-4)GlcNAc(b1-4)GlcNAc
# Procedure, shortened: as §1
# [12] = target: Gal(b1-3)GlcNAc(b1-3)Gal(b1-3)GlcNAc
# Procedure, shortened: as §1
# [13] = target: Gal(b1-3)GlcNAc(b1-3)Gal(b1-4)Glc
# Procedure, shortened: as §1
# [14] = target: Gal(b1-3)GlcNAc(b1-3)Gal(b1-4)GlcNAc
# Procedure, shortened: as §1
# [15] = target: Gal(b1-3)GlcNAc(b1-3)Gal(b1-4)GlcNAc(b1-2)Man(a1-3)[Gal(b1-3)GlcNAc(b1-3)Gal(b1-4)GlcNAc(b1-2)Man(a1-6)]Man(b1-4)GlcNAc(b1-4)GlcNAc
# Procedure, shortened: as §1
# [16] = target: Gal(b1-3)GlcNAc(b1-3)Gal(b1-4)GlcNAc(b1-2)[Gal(b1-3)GlcNAc(b1-3)Gal(b1-4)GlcNAc(b1-6)]Man(a1-6)[Gal(b1-3)GlcNAc(b1-3)Gal(b1-4)GlcNAc(b1-2)Man(a1-3)]Man(b1-4)GlcNAc(b1-4)[Fuc(a1-6)]GlcNAc
# Procedure, shortened: as §1
# [17] = target: Gal(b1-3)GlcNAc(b1-3)Gal(b1-4)GlcNAc(b1-3)Gal(b1-4)GlcNAc(b1-2)[Gal(b1-3)GlcNAc(b1-3)Gal(b1-4)GlcNAc(b1-3)Gal(b1-4)GlcNAc(b1-6)]Man(a1-6)[Gal(b1-3)GlcNAc(b1-3)Gal(b1-4)GlcNAc(b1-3)Gal(b1-4)GlcNAc(b1-2)Man(a1-3)]Man(b1-4)GlcNAc(b1-4)[Fuc(a1-6)]GlcNAc
# Procedure, shortened: as §1
# [18] = target: Gal(b1-3)GlcNAc(b1-3)Gal(b1-4)GlcNAc(b1-6)[Gal(b1-3)GlcNAc(b1-3)]Gal(b1-4)Glc
# Procedure, shortened: as §1
# [19] = target: Gal(b1-3)GlcNAc(b1-3)Gal(b1-4)[Fuc(a1-3)]GlcNAc
# Procedure, shortened: as §1
# [20] = target: Gal(b1-3)GlcNAc(b1-3)Gal(b1-4)[Fuc(a1-3)]GlcNAc(b1-6)[Gal(b1-3)GlcNAc(b1-3)]Gal(b1-4)Glc
# Procedure, shortened: as §1
# [21] = target: Gal(b1-3)GlcNAc(b1-3)GalNAc
# Procedure, shortened: as §1
# [22] = target: Gal(b1-3)GlcNAc(b1-6)Gal(b1-4)GlcNAc
# Procedure, shortened: as §1
# [23] = target: Gal(b1-3)GlcNAc(b1-6)GalNAc
# Procedure, shortened: as §1
# [24] = target: Gal(b1-3)GlcNAc(b1-6)[Gal(b1-3)]GalNAc
# Procedure, shortened: as §1
# Gal(b1-3)GlcNAc6S = target: Gal(b1-3)GlcNAc6S
# Procedure, shortened: as §1
# [25] = target: Gal(b1-3)[Fuc(a1-4)]GlcNAc
# Procedure, shortened: as §1
# [26] = target: Gal(b1-3)[Fuc(a1-4)]GlcNAc(b1-2)Man
# Procedure, shortened: as §1
# [27] = target: Gal(b1-3)[Fuc(a1-4)]GlcNAc(b1-2)Man(a1-3)[Gal(b1-3)[Fuc(a1-4)]GlcNAc(b1-2)Man(a1-6)]Man(b1-4)GlcNAc(b1-4)[Fuc(a1-6)]GlcNAc
# Procedure, shortened: as §1
# [28] = target: Gal(b1-3)[Fuc(a1-4)]GlcNAc(b1-3)Gal(b1-3)[Fuc(a1-4)]GlcNAc
# Procedure, shortened: as §1
binder,measurement,setting,value
B1,glycan array binding signal (z-score),Gal(a1-6)Glc,0.995
same,glycan array binding signal (z-score),Gal(b1-2)Gal,-0.135
same,glycan array binding signal (z-score),Gal(b1-3)Gal,0.171
same,glycan array binding signal (z-score),Gal(b1-3)Gal(b1-4)GlcNAc,-0.513
same,glycan array binding signal (z-score),Gal(b1-3)GalNAc,-0.049
same,glycan array binding signal (z-score),[1],0.05
same,glycan array binding signal (z-score),[2],0.025
same,glycan array binding signal (z-score),Gal(b1-3)GalNAc(b1-3)Gal,-0.026
same,glycan array binding signal (z-score),[3],0.394
same,glycan array binding signal (z-score),[4],1.06
same,glycan array binding signal (z-score),[5],0.023
same,glycan array binding signal (z-score),Gal(b1-3)GlcNAc,-0.441
same,glycan array binding signal (z-score),[6],1.57
same,glycan array binding signal (z-score),[7],-0.185
same,glycan array binding signal (z-score),Gal(b1-3)GlcNAc(b1-2)Man,0.055
same,glycan array binding signal (z-score),[8],0.751
same,glycan array binding signal (z-score),[9],-0.384
same,glycan array binding signal (z-score),[10],0.501
same,glycan array binding signal (z-score),[11],-0.014
same,glycan array binding signal (z-score),[12],-0.555
same,glycan array binding signal (z-score),[13],-0.437
same,glycan array binding signal (z-score),[14],-0.812
same,glycan array binding signal (z-score),[15],-0.145
same,glycan array binding signal (z-score),[16],2.13
same,glycan array binding signal (z-score),[17],0.884
same,glycan array binding signal (z-score),[18],0.383
same,glycan array binding signal (z-score),[19],-0.548
same,glycan array binding signal (z-score),[20],-0.376
same,glycan array binding signal (z-score),[21],-0.605
same,glycan array binding signal (z-score),[22],-0.506
same,glycan array binding signal (z-score),[23],1.12
same,glycan array binding signal (z-score),[24],-0.007
same,glycan array binding signal (z-score),Gal(b1-3)GlcNAc6S,-0.269
same,glycan array binding signal (z-score),[25],-0.37
same,glycan array binding signal (z-score),[26],0.558
same,glycan array binding signal (z-score),[27],-0.222
same,glycan array binding signal (z-score),[28],-0.532

# Reprinted at random: 2 records from the list.
binder,measurement,setting,value
B1,glycan array binding signal (z-score),[8],0.751
same,glycan array binding signal (z-score),Gal(b1-3)Gal(b1-4)GlcNAc,-0.513
